The target of experiment [1] is T1, His-HSCA2-Myc (without the mitochondrial targeting peptide) (Arabidopsis) (UniProt Q9LDZ0).
T1 sequence: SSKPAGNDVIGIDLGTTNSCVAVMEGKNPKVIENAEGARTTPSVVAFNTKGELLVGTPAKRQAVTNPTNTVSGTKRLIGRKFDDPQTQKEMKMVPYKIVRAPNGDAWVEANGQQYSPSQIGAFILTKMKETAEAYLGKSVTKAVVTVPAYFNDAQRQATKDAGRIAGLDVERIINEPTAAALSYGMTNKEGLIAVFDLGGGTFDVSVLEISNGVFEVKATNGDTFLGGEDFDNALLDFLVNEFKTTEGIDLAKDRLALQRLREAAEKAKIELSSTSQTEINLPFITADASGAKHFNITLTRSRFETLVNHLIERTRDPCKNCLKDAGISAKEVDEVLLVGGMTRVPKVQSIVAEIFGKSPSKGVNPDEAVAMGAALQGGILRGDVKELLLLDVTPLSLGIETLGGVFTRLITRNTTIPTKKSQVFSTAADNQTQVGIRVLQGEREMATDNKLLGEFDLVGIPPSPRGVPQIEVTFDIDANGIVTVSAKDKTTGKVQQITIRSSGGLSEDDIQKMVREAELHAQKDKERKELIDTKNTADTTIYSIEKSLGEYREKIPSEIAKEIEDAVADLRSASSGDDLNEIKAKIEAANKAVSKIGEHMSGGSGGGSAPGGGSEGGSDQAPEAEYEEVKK
The experiment can be described thus: pull-down; Ni Sepharose; about 10 ug purified His-tagged HSCA2, HSCA2^G87D or SSR1 with BL21(DE3) lysates expressing SSR1, ISU1 or ISU1^T55M without His-tag, 1 hour at 4°C; anti-Myc blot; only the target purified.

Experiment [2] has as its target T2, His-HSCA2^G87D-Myc (without the mitochondrial targeting peptide) (Arabidopsis) (UniProt Q9LDZ0).
T2 sequence: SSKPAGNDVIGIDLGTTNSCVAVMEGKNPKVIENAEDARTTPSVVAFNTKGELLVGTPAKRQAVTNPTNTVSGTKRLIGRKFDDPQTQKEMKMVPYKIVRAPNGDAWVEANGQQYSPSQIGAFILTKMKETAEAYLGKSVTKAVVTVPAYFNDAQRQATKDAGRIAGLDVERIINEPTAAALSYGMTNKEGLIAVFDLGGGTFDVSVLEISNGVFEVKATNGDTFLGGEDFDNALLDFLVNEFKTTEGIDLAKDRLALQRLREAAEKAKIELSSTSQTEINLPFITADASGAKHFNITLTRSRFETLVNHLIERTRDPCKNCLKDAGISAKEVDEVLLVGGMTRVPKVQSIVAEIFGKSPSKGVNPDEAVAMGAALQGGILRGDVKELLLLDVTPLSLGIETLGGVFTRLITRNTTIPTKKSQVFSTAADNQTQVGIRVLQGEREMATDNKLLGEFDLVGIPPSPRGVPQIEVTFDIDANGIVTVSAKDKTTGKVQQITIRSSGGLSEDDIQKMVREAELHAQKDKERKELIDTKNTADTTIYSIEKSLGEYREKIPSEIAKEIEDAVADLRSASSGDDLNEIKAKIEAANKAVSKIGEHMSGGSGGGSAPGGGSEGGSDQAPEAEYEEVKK
Described as above.

The target of experiment [3] is T1, His-HSCA2-Myc (without the mitochondrial targeting peptide) (Arabidopsis). The experiment can be described thus: pull-down; Ni-NTA; His-tagged HSCA2 expressed in E. coli as bait; Myc-tagged ISU1^T55M variants of the LPPVK motif expressed in E. coli.
Experiment [4] shares this target. Nature of the experiment: pull-down; Ni Sepharose; purified His-tagged baits with purified tag-excised preys (about 10 ug each in 200 uL), with or without SSR1-Myc; 50 mM Tris-HCl pH 7.4, 50 mM NaCl, 10 mM KCl, 0.1% Tween-20; 4°C; anti-Myc blot; both purified.
Experiment [5] shares this target. Nature of the experiment: native gel or EMSA; BN-PAGE (5%-13%) then SDS-PAGE in the second dimension; about 10 ug of each protein in 200 uL, 4°C one hour; 50 mM Tris-HCl pH 7.4, 50 mM NaCl, 10 mM KCl, 0.1% Tween-20, 100 uM ATP; anti-Myc blot; both purified. (In general: A gel shift assay detects complexes by their altered migration in electrophoresis.)
Experiment [6] deals with T2, His-HSCA2^G87D-Myc (without the mitochondrial targeting peptide) (Arabidopsis). Nature of the experiment: pull-down; Ni Sepharose; purified His-tagged baits with purified tag-excised preys (about 10 ug each in 200 uL), with or without SSR1-Myc; 50 mM Tris-HCl pH 7.4, 50 mM NaCl, 10 mM KCl, 0.1% Tween-20; 4°C; anti-Myc blot; both purified.

These are yes or no findings as the source states them, for the method shown. For part of these data: In cells and extracts the contact can be indirect. Some results given as binding are weak or reduced against the parent protein; the word gives no strength. Sequences can lack the tags named with a protein.

B1: ISU1-Myc expressed without His-tag, in E. coli lysate (without the mitochondrial targeting peptide) (protein, UniProt O49627 51-167)
chain: PNVGTGLVGAPACGDVMKLQIKVDEKTGQIVDARFKTFGCGSAIASSSVATEWVKGKAMEDVLTIKNTEIAKHLSLPPVKLHCSMLAEDAIKAAVKDYKEKRVKTNGAAAAGETTQA
For the molecule B1, the binding entry in experiment [1] and in experiment [2] was “binds” throughout.

B2: Myc-tagged ISU1^T55MP127A (protein, UniProt O49627 51-167)
chain: PNVGMGLVGAPACGDVMKLQIKVDEKTGQIVDARFKTFGCGSAIASSSVATEWVKGKAMEDVLTIKNTEIAKHLSLAPVKLHCSMLAEDAIKAAVKDYKEKRVKTNGAAAAGETTQA
With B2, the binding entry in experiment [3] is on record as “binds”.

B3: ISU1^T55M-Myc, purified, His-tag excised (without the mitochondrial targeting peptide) (protein, UniProt O49627 51-167)
chain: PNVGMGLVGAPACGDVMKLQIKVDEKTGQIVDARFKTFGCGSAIASSSVATEWVKGKAMEDVLTIKNTEIAKHLSLPPVKLHCSMLAEDAIKAAVKDYKEKRVKTNGAAAAGETTQA
On to B3, for which the binding result in experiment [4] was “binds”.

B4: Myc-tagged ISU1^T55MAAA (PVK of the LPPVK motif to AAA) (protein, UniProt O49627 51-167)
chain: PNVGMGLVGAPACGDVMKLQIKVDEKTGQIVDARFKTFGCGSAIASSSVATEWVKGKAMEDVLTIKNTEIAKHLSLPAAALHCSMLAEDAIKAAVKDYKEKRVKTNGAAAAGETTQA
B4: the binding result in experiment [3] is given as “binds weakly”.

B5: Myc-tagged ISU1^T55ML126A (protein, UniProt O49627 51-167)
chain: PNVGMGLVGAPACGDVMKLQIKVDEKTGQIVDARFKTFGCGSAIASSSVATEWVKGKAMEDVLTIKNTEIAKHLSAPPVKLHCSMLAEDAIKAAVKDYKEKRVKTNGAAAAGETTQA
As to B5, the binding result in experiment [3] was “binds”.

B6: ISU1-Myc, purified, His-tag excised (without the mitochondrial targeting peptide) (protein, UniProt O49627 51-167)
chain: PNVGTGLVGAPACGDVMKLQIKVDEKTGQIVDARFKTFGCGSAIASSSVATEWVKGKAMEDVLTIKNTEIAKHLSLPPVKLHCSMLAEDAIKAAVKDYKEKRVKTNGAAAAGETTQA
Regarding B6, the binding result in experiment [5], in experiment [4] and in experiment [6] was “binds” each time.

B7: Myc-tagged ISU1^T55M of the LPPVK mutant pull-down (Fig 3A) (protein, UniProt O49627 51-167)
chain: PNVGMGLVGAPACGDVMKLQIKVDEKTGQIVDARFKTFGCGSAIASSSVATEWVKGKAMEDVLTIKNTEIAKHLSLPPVKLHCSMLAEDAIKAAVKDYKEKRVKTNGAAAAGETTQA
Turning to B7, the binding result in experiment [3] is on record as “binds”.

B8: ISU1^T55M-Myc expressed without His-tag, in E. coli lysate (without the mitochondrial targeting peptide) (protein, UniProt O49627 51-167)
chain: PNVGMGLVGAPACGDVMKLQIKVDEKTGQIVDARFKTFGCGSAIASSSVATEWVKGKAMEDVLTIKNTEIAKHLSLPPVKLHCSMLAEDAIKAAVKDYKEKRVKTNGAAAAGETTQA
As for B8, the binding result in experiment [1] is given as “binds”.

B9: Myc-tagged ISU1^T55MP128S (protein, UniProt O49627 51-167)
chain: PNVGMGLVGAPACGDVMKLQIKVDEKTGQIVDARFKTFGCGSAIASSSVATEWVKGKAMEDVLTIKNTEIAKHLSLPSVKLHCSMLAEDAIKAAVKDYKEKRVKTNGAAAAGETTQA
On to B9, for which, in experiment [3], the binding result was “binds”.

The values above are taken from article PMC11835332.
